Measured values reported in article PMC4666357.
These are yes or no findings as the source states them, for the method shown. Binding seen in cells or lysates may run through a third protein. Some binding calls cover weakened binding; strength is not graded here. For some of these results: Where a sequence is shown, tags or fusion partners need not be part of it. Values belong to the binder of their own block, whether it stands above or below them.

Experiments:
Details in all cases: remark: other sources report otherwise
[1] = molecular target: T1, CARF, endogenous (human (endogenous in 293T)), Q9NXV6; assay: co-IP; endogenous proteins from 293T cell lysate (1 mg) in buffer A; anti-CARF or anti-XRN2 on Dynabeads protein G, 3 h at 4°C; normal rabbit IgG as control; immunoblot
T1 chain: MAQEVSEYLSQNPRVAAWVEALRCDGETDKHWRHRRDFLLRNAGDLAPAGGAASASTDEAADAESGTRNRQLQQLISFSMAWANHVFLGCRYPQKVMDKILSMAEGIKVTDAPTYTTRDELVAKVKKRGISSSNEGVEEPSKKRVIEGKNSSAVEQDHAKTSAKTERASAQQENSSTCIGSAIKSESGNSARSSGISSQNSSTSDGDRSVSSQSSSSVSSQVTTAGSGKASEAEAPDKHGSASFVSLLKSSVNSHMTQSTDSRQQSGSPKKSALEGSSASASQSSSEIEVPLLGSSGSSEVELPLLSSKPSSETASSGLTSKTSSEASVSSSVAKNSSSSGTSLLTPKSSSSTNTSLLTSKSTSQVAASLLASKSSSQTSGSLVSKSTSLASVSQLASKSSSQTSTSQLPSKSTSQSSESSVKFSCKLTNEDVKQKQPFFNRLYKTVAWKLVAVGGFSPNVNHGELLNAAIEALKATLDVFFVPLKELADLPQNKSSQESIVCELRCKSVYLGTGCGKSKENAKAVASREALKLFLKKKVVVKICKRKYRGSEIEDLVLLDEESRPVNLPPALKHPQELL

[2] = molecular target: T2, FLAG-tagged CARF (collaborator of alternative reading frame protein) (human), Q9NXV6; assay: co-IP; anti-FLAG immunoprecipitation from TOCARF cells induced with 0, 0.1 or 10 ng/ml doxycycline (Flp-In T-Rex 293 cells as control); immunoblot
T2 chain: T1 chain

[3] = molecular target: T3, FLAG–CARF stably expressed in Flp-In T-Rex 293 cells (human), Q9NXV6; assay: co-IP; anti-FLAG immunoprecipitation from Flp-In T-Rex 293 cells stably expressing FLAG–CARF or FLAG–fibrillarin; immunoprecipitates treated without or with RNase A; immunoblot
T3 chain: T1 chain

[4] = molecular target: T4, 5′-3′ exoribonuclease 2 (XRN2), endogenous (human (endogenous in Flp-In T-Rex 293 and 293T)), Q9H0D6; assay: co-IP; endogenous proteins from 293T cell lysate (1 mg) in buffer A; anti-CARF or anti-XRN2 on Dynabeads protein G, 3 h at 4°C; normal rabbit IgG as control; immunoblot
T4 chain: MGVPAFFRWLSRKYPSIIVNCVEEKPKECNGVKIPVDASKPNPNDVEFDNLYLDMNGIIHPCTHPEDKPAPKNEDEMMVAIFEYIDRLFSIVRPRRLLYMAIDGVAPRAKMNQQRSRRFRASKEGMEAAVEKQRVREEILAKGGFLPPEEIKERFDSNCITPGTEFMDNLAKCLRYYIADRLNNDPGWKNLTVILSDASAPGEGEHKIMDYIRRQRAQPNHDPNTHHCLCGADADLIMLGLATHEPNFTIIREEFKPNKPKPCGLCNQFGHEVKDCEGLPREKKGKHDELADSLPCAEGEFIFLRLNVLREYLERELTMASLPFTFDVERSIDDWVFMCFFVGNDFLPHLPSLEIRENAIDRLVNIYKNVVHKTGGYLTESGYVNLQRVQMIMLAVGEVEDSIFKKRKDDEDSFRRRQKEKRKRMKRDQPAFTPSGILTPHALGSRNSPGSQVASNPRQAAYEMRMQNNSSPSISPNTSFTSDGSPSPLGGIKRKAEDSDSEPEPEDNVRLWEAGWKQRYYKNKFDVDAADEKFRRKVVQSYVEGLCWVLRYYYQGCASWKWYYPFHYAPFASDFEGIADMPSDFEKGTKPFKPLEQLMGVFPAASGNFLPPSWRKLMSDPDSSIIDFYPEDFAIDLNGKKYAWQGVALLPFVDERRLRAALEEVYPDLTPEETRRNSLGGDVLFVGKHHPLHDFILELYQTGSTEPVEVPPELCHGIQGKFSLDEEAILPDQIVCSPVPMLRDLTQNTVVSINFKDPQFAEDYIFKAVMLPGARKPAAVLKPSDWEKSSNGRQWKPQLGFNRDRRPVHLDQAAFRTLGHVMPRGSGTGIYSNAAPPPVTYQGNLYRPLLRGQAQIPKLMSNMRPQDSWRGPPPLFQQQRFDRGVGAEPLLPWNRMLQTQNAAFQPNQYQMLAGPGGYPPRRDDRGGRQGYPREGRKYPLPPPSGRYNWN

- binding [1]: binds
- binding [2]: binds
- binding [3]: binds
B1: 5′-3′ exoribonuclease 2 (XRN2), endogenous, Q9H0D6-1 1-950 (enzyme)
chain: T4 chain

- binding [4]: binds
B2: CARF, endogenous, Q9NXV6 1-580 (protein)
chain: T1 chain
